Results deposited as PubChem BioAssay AID743454 (Peter MacCallum Cancer Centre, 2014)
Purpose: 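Knock-downs lowering viability or raising caspase 3/7 activity in vorinostat-treated resistant cells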 (primary screen). Cells: human HCT116-VR colon cancer cells, selected for vorinostat resistance. Knock-down reagent: siRNA pool against human genes, 40 nM siRNA pool. Duration: vorinostat for 24 h, read-out about 72 h after transfection. Treatment: vorinostat at 2.5 µM final. Read-out: 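Cell viability by CellTiter-Fluor and caspase 3/7 activity by luminescence, each scaled to mock wells per plate, duplicates averaged, then robust z-scored over all plates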. Scale: viability robust z-score: higher = more viable cells than screen typical; caspase robust z-score: higher = more caspase 3/7 activity than screen typical. Hit rule: 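Hits are knock-downs in viability class RV1/RV2 or caspase class CA1/CA2, excluding ones that killed cells in the no-drug cell-count arm; hits then retested with single siRNAs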.
The whole screen tested about 18,000 reagents; below is a random part of them. 450 of them (2.5%) count as active. 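Single biological run; no consistent viability z cut-off exists, so the class columns, not z-scores, define the calls.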 Entries without a mark were called inactive.

{"gene": "DLX5", "PubChem SID": "SID135622244", "viability hit class": "no change", "caspase hit class": "no change", "viability robust z-score": 0.97, "caspase robust z-score": -0.5}
{"gene": "ZNF586", "PubChem SID": "SID152151636", "viability hit class": "no change", "caspase hit class": "no change", "viability robust z-score": -1.23, "caspase robust z-score": 0.33}
{"gene": "ANAPC5", "PubChem SID": "SID134320105", "viability hit class": "no change", "caspase hit class": "no change", "viability robust z-score": -1.06, "caspase robust z-score": -0.32}
{"gene": "PHF19", "PubChem SID": "SID135624540", "viability hit class": "no change", "caspase hit class": "no change", "viability robust z-score": -1.51, "caspase robust z-score": -0.34}
{"gene": "TYROBP", "PubChem SID": "SID135622347", "viability hit class": "no change", "caspase hit class": "no change", "viability robust z-score": 0.55, "caspase robust z-score": 0.52}
{"gene": "TMEM25", "PubChem SID": "SID135623471", "viability hit class": "no change", "caspase hit class": "no change", "viability robust z-score": 0.53, "caspase robust z-score": 0.76}
{"gene": "TNIP2", "PubChem SID": "SID134318491", "viability hit class": "no change", "caspase hit class": "no change", "viability robust z-score": -0.36, "caspase robust z-score": 1.56}
{"gene": "HCK", "PubChem SID": "SID135620622", "viability hit class": "no change", "caspase hit class": "no change", "viability robust z-score": 0.92, "caspase robust z-score": 1.42}
{"gene": "ADAMTS19", "PubChem SID": "SID152152806", "viability hit class": "no change", "caspase hit class": "no change", "viability robust z-score": 0.82, "caspase robust z-score": -0.87}
{"gene": "GPBAR1", "PubChem SID": "SID135621013", "viability hit class": "no change", "caspase hit class": "no change", "viability robust z-score": -0.24, "caspase robust z-score": -0.62}
{"gene": "SULT1A3", "PubChem SID": "SID152154374", "viability hit class": "no change", "caspase hit class": "no change", "viability robust z-score": 0.47, "caspase robust z-score": -0.44}
{"gene": "GRID1", "PubChem SID": "SID152154150", "viability hit class": "no change", "caspase hit class": "no change", "viability robust z-score": -0.42, "caspase robust z-score": -0.54}
{"gene": "DDX4", "PubChem SID": "SID152150986", "viability hit class": "no change", "caspase hit class": "no change", "viability robust z-score": 0.66, "caspase robust z-score": -0.08}
{"gene": "RPS6KB2", "PubChem SID": "SID152153683", "viability hit class": "no change", "caspase hit class": "no change", "viability robust z-score": -0.68, "caspase robust z-score": 0.32}
{"gene": "HLA-DRB5", "PubChem SID": "SID134317459", "viability hit class": "no change", "caspase hit class": "no change", "viability robust z-score": 0.22, "caspase robust z-score": 0.32}
{"gene": "TNXB", "PubChem SID": "SID135621505", "viability hit class": "no change", "caspase hit class": "no change", "viability robust z-score": -0.8, "caspase robust z-score": 2.29}
{"gene": "LSM7", "PubChem SID": "SID135624142", "viability hit class": "no change", "caspase hit class": "no change", "viability robust z-score": -1.58, "caspase robust z-score": -1.27}
{"gene": "SORBS3", "PubChem SID": "SID152155462", "viability hit class": "no change", "caspase hit class": "no change", "viability robust z-score": 0.21, "caspase robust z-score": 0.38}
{"gene": "ZFP69B", "PubChem SID": "SID134312179", "viability hit class": "no change", "caspase hit class": "no change", "viability robust z-score": -0.64, "caspase robust z-score": 1.75}
{"gene": "ODR4", "PubChem SID": "SID152147470", "viability hit class": "no change", "caspase hit class": "no change", "viability robust z-score": -0.24, "caspase robust z-score": -1.25}
{"gene": "DEXI", "PubChem SID": "SID134323237", "viability hit class": "no change", "caspase hit class": "no change", "viability robust z-score": -0.25, "caspase robust z-score": -1.17}

Individual results from the entries so far:
For “viability robust z-score”, TNXB [SID135621505] has -0.8
TYROBP [SID135622347], caspase hit class = no change
